Assay results as given in doi:10.1101/2024.07.20.604396.
No constants are given. Whether binding was seen depends on the method and setting. Binding seen in cells or lysates may run through a third protein. Binding can be weak; no strength is given.

B1: Rab11 (Drosophila, in S2 cells) (protein, UniProt O18335 1-214)
chain: MGAREDEYDYLFKVVLIGDSGVGKSNLLSRFTRNEFNLESKSTIGVEFATRSIEVDGKTIKAQIWDTAGQERYRAITSAYYRGAVGALLVYDIAKHLTYENVERWLRELRDHADQNIVIMLVGNKSDLRHLRSVPTDEAKLFAERNGLSFIETSALDSTNVETAFQNILTEIYRIVSQKQIRDPPEGDVIRPSNVEPIDVKPTVTADVRKQCCQ
B2: IER3IP1 (in HCT116 or HEK293 cells) (protein, UniProt Q9Y5U9 1-82)
chain: MAFTLYSLLQAALLCVNAIAVLHEERFLKNIGWGTDQGIGGFGEEPGIKSQLMNLIRSVRTVMRVPLIIVNSIAIVLLLLFG

Legend:
[1] = molecular target: HA::Insep (Inseparable, CG32069) (Drosophila) (UniProt Q9VTE1); test: co-IP
[2] = molecular target: mCherry::Rab11; test: co-IP

Binder | binding [1] | binding [2]
B1 | binds | –
B2 | – | binds
